The values that follow come from patent US6713410B1, “Method for textile treatment for spandex containing fabrics” (E.I. du Pont de Nemours and Co., priority 1997, dated 2004).

Structures are written as SMILES. Some compounds share one wording; it may come from a single statement. Some compounds share one range, which may span the group rather than tell each member.

This data set can be described thus: Perfume ingredient deposition on spandex-containing cloth versus all-cotton cloth after washing (solvent extraction, gas chromatography). The following applies: concentration extracted from 95% cotton/5% spandex cloth relative to all-cotton cloth; washed with powder containing 0.5% perfume, line dried overnight.

With `CC(C)CCCC(C)(C)O` [2,6-dimethyl-heptan-2-ol], the Enhancement result is “L (if less than 5 or not measurable, it was coded(L))”. Under `OCCc1ccccc1` [2-phenylethanol] stands “L (if less than 5 or not measurable, it was coded(L))”; under `CCOCOC1CCCCCCCCCCC1` [Boisambrene Forte], “M (greater than from the all-cotton cloth by a factor of 5 to 20, the result was coded as a medium enhancement (M))”; under `CC(=O)c1cc2c(cc1C)C(C)(C)C(C)CC2(C)C` (stereo not drawn) [Tonalid, 1,1,2,4,4,7-hexamethyl-6-acetyl-1,2,3,4-tetrahydronaphthalene], “M (greater than from the all-cotton cloth by a factor of 5 to 20, the result was coded as a medium enhancement (M))”. As to `CC(=O)CCc1ccccc1` [benzyl acetone], the Enhancement result is on record as “M (greater than from the all-cotton cloth by a factor of 5 to 20, the result was coded as a medium enhancement (M))”. With `CC(C)=CCCC(C)CCO` (stereo not drawn) [citronellol], the Enhancement entry was “H (If the concentration was greater by 20 or more, it was coded high(H))”. For `CC(=O)OC1CC2CC1C1CC=CC21` (stereo not drawn) [jasmacyclene, tricyclodecenyl acetate] the value was “H (If the concentration was greater by 20 or more, it was coded high(H))”. As to `COC(=O)c1ccccc1O` [methyl salicylate], the Enhancement entry is “L (if less than 5 or not measurable, it was coded(L))”.

With `CC(=O)OC(C)(C)C1CC=C(C)CC1` (stereo not drawn) [terpinyl acetate], the Enhancement result is “H (If the concentration was greater by 20 or more, it was coded high(H))”. Under `CC(C)CCCC(C)CCO` (stereo not drawn) [tetrahydrogeraniol] stands “H (If the concentration was greater by 20 or more, it was coded high(H))”; under `CCC(C)(O)CCCC(C)C` (stereo not drawn) [tetrahydrolinalol], “H (If the concentration was greater by 20 or more, it was coded high(H))”; under `COc1ccc2ccccc2c1` [yara], “H (If the concentration was greater by 20 or more, it was coded high(H))”.
